Measured values as given in paper PMC4558565.
Positions count from the first letter of the chain named. No constants are given. Whether binding was seen depends on the method and setting. For some of these results: In cells and extracts the contact can be indirect. Some results given as binding are weak or reduced against the parent protein; the word gives no strength. Sequences can lack the tags named with a protein.

B1: bZIP63 (yeast two-hybrid fusion) (protein, UniProt B9DGI8 1-314)
chain: MEKVFSDEEISGNHHWSVNGMTSLNRSASEWAFNRFIQESSAAADDGESTTACGVSVSSPPNVPVDSEEYRAFLKSKLNLACAAVAMKRGTFIKPQDTSGRSDNGGANESEQASLASSKATPMMSSAITSGSELSGDEEEADGETNMNPTNVKRVKRMLSNRESARRSRRRKQAHLSELETQVSQLRVENSKLMKGLTDVTQTFNDASVENRVLKANIETLRAKVKMAEETVKRLTGFNPMFHNMPQIVSTVSLPSETSNSPDTTSSQVTTPEIISSGNKGKALIGCKMNRTASMRRVESLEHLQKRIRSVGDQ
B2: bZIP63 (split-CFP BiFC fusion) (protein, UniProt B9DGI8 1-314)
chain: B1 chain
B3: bZIP63 (protoplast two-hybrid fusion) (protein, UniProt B9DGI8 1-314)
chain: B1 chain
B4: bZIP11 (protoplast two-hybrid fusion) (protein, UniProt O65683 1-159)
chain: MESSSSGTTSSTIQTSSGSEESLMEQRKRKRMLSNRESARRSRMKKQKLLDDLTAQVNHLKKENTEIVTSVSITTQHYLTVEAENSVLRAQLDELNHRLQSLNDIIEFLDSSNNNNNNNMGMCSNPLVGLECDDFFVNQMNMSYIMNQPLMASSDALMY
B5: bZIP63 S29/294/300A fused to the C-terminal moiety of CFP (multi-color BiFC) (protein, UniProt B9DGI8 1-314)
chain: B1 chain with S29A, S294A, S300A

What was measured:
[1] = biological target: T1, AKIN10 (LexA-BD yeast two-hybrid fusion) (Arabidopsis thaliana) (UniProt Q38997); experiment: two-hybrid; yeast strain L40; LexA-BD fusions (pBTM117) as baits, GAL4-AD-bZIP63 (pACTIIJ) as prey; lacZ reporter read with ONPG in cell extracts; auto-activation measured with empty pACTIIJ
T1 sequence: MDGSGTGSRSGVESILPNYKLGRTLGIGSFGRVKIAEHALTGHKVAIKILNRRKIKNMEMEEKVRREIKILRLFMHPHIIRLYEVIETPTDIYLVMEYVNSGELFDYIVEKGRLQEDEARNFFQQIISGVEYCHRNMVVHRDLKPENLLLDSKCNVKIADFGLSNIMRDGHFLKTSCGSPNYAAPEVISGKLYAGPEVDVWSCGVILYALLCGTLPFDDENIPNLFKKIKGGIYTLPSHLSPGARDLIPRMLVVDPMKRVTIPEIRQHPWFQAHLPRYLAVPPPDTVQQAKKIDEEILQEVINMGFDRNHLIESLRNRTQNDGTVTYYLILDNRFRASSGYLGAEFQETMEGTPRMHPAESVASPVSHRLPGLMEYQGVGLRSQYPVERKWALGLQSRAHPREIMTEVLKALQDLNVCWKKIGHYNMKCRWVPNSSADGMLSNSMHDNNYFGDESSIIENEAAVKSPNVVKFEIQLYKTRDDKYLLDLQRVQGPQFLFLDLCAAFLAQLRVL

[2] = biological target: T2, AKIN11 (LexA-BD yeast two-hybrid fusion) (Arabidopsis thaliana) (UniProt P92958); experiment: as above
T2 sequence: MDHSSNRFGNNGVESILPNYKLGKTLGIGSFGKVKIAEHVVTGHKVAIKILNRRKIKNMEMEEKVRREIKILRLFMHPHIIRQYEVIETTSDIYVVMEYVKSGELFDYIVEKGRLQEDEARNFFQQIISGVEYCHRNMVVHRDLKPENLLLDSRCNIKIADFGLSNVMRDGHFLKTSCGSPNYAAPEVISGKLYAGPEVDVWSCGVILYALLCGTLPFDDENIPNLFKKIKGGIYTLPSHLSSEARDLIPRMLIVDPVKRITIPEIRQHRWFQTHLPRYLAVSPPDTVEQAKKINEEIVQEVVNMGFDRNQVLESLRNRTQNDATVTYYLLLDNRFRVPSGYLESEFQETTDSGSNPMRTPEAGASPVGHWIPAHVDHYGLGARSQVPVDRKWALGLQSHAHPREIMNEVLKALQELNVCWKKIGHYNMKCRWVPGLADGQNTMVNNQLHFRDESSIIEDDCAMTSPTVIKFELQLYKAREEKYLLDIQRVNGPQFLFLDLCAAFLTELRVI

[3] = biological target: T3, SNF4 (LexA-BD yeast two-hybrid fusion) (Arabidopsis thaliana) (UniProt Q944A6); experiment: as above
T3 sequence: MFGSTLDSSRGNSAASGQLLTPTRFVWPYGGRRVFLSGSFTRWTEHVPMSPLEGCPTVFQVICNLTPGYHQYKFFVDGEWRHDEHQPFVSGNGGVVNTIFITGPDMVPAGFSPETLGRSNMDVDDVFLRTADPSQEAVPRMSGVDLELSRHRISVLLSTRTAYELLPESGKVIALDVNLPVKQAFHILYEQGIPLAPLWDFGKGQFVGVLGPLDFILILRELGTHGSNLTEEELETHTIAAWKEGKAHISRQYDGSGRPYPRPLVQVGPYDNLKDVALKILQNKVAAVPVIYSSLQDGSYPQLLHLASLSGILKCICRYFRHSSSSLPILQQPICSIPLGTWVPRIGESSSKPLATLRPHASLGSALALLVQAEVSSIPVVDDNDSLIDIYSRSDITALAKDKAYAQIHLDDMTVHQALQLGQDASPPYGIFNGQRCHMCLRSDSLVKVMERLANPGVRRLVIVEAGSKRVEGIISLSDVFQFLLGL

[4] = biological target: bZIP63 (yeast two-hybrid fusion) (Arabidopsis thaliana) (UniProt B9DGI8); experiment: as above
[5] = biological target: T4, AKIN10 (split-CFP BiFC fusion) (Arabidopsis thaliana) (UniProt Q38997); experiment: split reporter; BiFC with split CFP in transiently transformed Nicotiana tabacum leaf epidermis; confocal microscopy 48 hr after infiltration, same settings for each construct
T4 sequence: T1 sequence

[6] = biological target: T5, AKIN11 (split-CFP BiFC fusion) (Arabidopsis thaliana) (UniProt P92958); experiment: as above
T5 sequence: T2 sequence

[7] = biological target: T6, SNF4 (split-CFP BiFC fusion) (Arabidopsis thaliana) (UniProt Q944A6); experiment: as above
T6 sequence: T3 sequence

[8] = biological target: bZIP63 (split-CFP BiFC fusion) (Arabidopsis thaliana) (UniProt B9DGI8); experiment: as above
[9] = biological target: T7, bZIP1 fused to the N-terminal moiety of VENUS (multi-color BiFC) (Arabidopsis thaliana) (UniProt Q9FGX2); experiment: split reporter; multi-color BiFC in transiently transformed Nicotiana tabacum leaves; bZIP11-CFP-N, bZIP1-VENUS-N and CFP-C-bZIP63 (wt or S29/294/300A) from one plasmid, AKIN10-mCherry co-transformed; VENUS/CFP ratio in nuclei with mCherry signal, 48 hr after infiltration
T7 sequence: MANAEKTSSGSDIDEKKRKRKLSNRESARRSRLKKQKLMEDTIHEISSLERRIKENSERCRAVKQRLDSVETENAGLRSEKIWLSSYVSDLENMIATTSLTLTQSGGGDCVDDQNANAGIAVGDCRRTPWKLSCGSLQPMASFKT

[10] = biological target: T8, bZIP11 fused to the N-terminal moiety of CFP (multi-color BiFC) (Arabidopsis thaliana) (UniProt O65683); experiment: as above
T8 sequence: B4 chain

[11] = biological target: T9, BD-bZIP63 S29/294/300A (protoplast two-hybrid) (Arabidopsis thaliana) (UniProt B9DGI8); experiment: two-hybrid; protoplast two-hybrid (P2H) in Arabidopsis leaf protoplasts; GAL4-AD and GAL4-BD fusions, GAL-UAS4::GUS reporter normalised to 35S::NAN; without and with co-transformation of AKIN10; 16 hr
T9 sequence: B1 chain with S29A, S294A, S300A

[12] = biological target: T10, BD-bZIP63 S29A (protoplast two-hybrid) (Arabidopsis thaliana) (UniProt B9DGI8); experiment: as above
T10 sequence: B1 chain with S29A

[13] = biological target: T11, BD-bZIP63 with the two C-terminal sites mutated, S294/300A (protoplast two-hybrid) (Arabidopsis thaliana) (UniProt B9DGI8); experiment: as above
T11 sequence: B1 chain with S294A, S300A

[14] = biological target: T12, bZIP1 fused to the Gal4-BD (protoplast two-hybrid) (Arabidopsis thaliana) (UniProt Q9FGX2); experiment: as above
T12 sequence: T7 sequence

[15] = biological target: T13, bZIP11 (protoplast two-hybrid fusion) (Arabidopsis thaliana) (UniProt O65683); experiment: as above
T13 sequence: B4 chain

[16] = biological target: T14, bZIP63 (protoplast two-hybrid fusion) (Arabidopsis thaliana) (UniProt B9DGI8); experiment: as above
T14 sequence: B1 chain

Binder	binding [9]	binding [10]	binding [11]	binding [12]	binding [13]	binding [16]	further results
B1							binding [1]: binds; binding [2]: binds weakly; binding [3]: binds; binding [4]: binds
B2	binds	binds					binding [5]: binds; binding [6]: binds weakly; binding [7]: binds; binding [8]: binds
B3			binds	binds	binds	binds	binding [14]: binds; binding [15]: binds
B4			binds	binds	binds	binds	
B5	binds	binds					
